Measurements reported in PubChem BioAssay AID504786 (Drosophila RNAi Screening Center, 2011).
The screen tested about 21,000 reagents; below is a random part of those with a known target gene and a result. 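Primary screen; positive scores mean lost reporter signal, so the sign may be inverted from the usual convention.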 A plus sign joins genes that one reagent is predicted to hit. Further read-outs or replicates are left out here. No sequences are given here.

Purpose: 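Positive regulators of HIF-driven reporter output in Drosophila cells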 (primary screen)
Cell system: Drosophila S2 cells with a stable HIF luciferase reporter
Knock-down reagent: long dsRNA against Drosophila genes, about 0.2 µg dsRNA per well of a 384-well plate
Duration: three days of knock-down, then 20 h of DFO before reading
Treatment: desferrioxamine (DFO) at 100 µM, an iron chelator that mimics hypoxia, for 20 h
Detection: 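HIF reporter luminescence in cells given 100 µM DFO for 20 h, using the mouse ldh-a hypoxia-response element, scored as per-plate z-scores; higher means greater loss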
Direction: z-score: higher = stronger loss of HIF reporter signal

z-score, replicate 1, by target and reagent
CG3164: DRSC00572 -0.4
prd: DRSC03597 -0.3
CG31928: DRSC00293 -0.2
ScpX: DRSC03430 -0.4
Ube4A: DRSC02004 -0.1
CG8908: DRSC07297 -0.3
Alp12: DRSC02515 -0.4
CG14767: DRSC06500 -0.2
EMC2B: DRSC15506 0.4
QIL1: DRSC10888 1
CG7992: DRSC20070 -0.4
wuho: DRSC18101 -0.3
CG8112: DRSC16377 -0.3
CG3909: DRSC14150 0.2
blp: DRSC15757 0.1
CG9259: DRSC03174 -0.3
CG33702: DRSC08986 -0.3
Sgs5bis: DRSC16263 -0.2
Best4: DRSC10792 -0.3
side: DRSC14523 -0.4; DRSC14716 -0.3; DRSC14717 -0.4; DRSC14718 -0.1; DRSC14721 -0.3
Septin2: DRSC16855 -0.3
Pgant3: DRSC05942 -0.1
corolla: DRSC20102 -0.3
dysf: DRSC14529 -0.3; DRSC14895 -0.4; DRSC14896 -0.2; DRSC14897 -0.9
CG18476: DRSC15281 -0.2
hiw: DRSC20338 -0.5; DRSC20339 -0.2
Npc2a: DRSC00698 0.1
Nprl2: DRSC20153 -0.5
CG32388: DRSC08861 -0.3
mTerf5: DRSC16209 -0.2
EMC7: DRSC07162 -0.3
CG5597: DRSC04517 0.1
CG6329: DRSC06976 -0.3
CG8785: DRSC07266 -0.4
CG10874: DRSC00297 0.2
CG7430: DRSC10845 -0.2
Cog3: DRSC00585 -0.4
CG17819: DRSC15279 0.1
Gagr: DRSC10441 -0.3

Part of the list above in another layout:
target,amplicon,"z-score, replicate 1"
dysf,DRSC14897,-0.9
CG18476,DRSC15281,-0.2
hiw,DRSC20338,-0.5
hiw,DRSC20339,-0.2
Npc2a,DRSC00698,0.1
Nprl2,DRSC20153,-0.5
CG32388,DRSC08861,-0.3
mTerf5,DRSC16209,-0.2
EMC7,DRSC07162,-0.3
CG5597,DRSC04517,0.1

More records follow:
z-score, replicate 1, by target and reagent
Npc2e: DRSC15522 -0.3
CG33966: DRSC08256 -0.3
Eig71Ed: DRSC11151 -0.4
CG7458: DRSC11829 -0.4
CkIalpha: DRSC20231 0.1
DppIII: DRSC16241 -0.2
CG9877: DRSC04587 -0.2
CG33093: DRSC15775 -0.1
Nup160: DRSC02774 1.8
CG5078: DRSC11762 -0.3
qin: DRSC14782 -0.1
CG6937: DRSC16140 2.8
Lamp1: DRSC03727 -0.4
CG34135: DRSC12702 0
CG17049 (retired record): DRSC06650 -0.3
att-ORFB + DPCoAC: DRSC15556 -0.1
Rab6: DRSC03404 -0.3
Clc: DRSC11116 -0.4
emc: DRSC08715 1
CG17996 + Tsen2: DRSC02650 0.1
CG34025: DRSC08014 -0.3
CG15657: DRSC04248 -0.2
CG6015: DRSC15948 1.7
hebe: DRSC05192 -0.2; DRSC06605 -0.3
rols: DRSC09873 0.3; DRSC10254 -0.3; DRSC10536 -0.2
CG13465: DRSC10011 -0.3
Sans: DRSC06357 0.2
SCCRO4: DRSC10671 -0.3
Cnot4: DRSC02830 -0.1; DRSC02831 0
spas: DRSC15929 0.1
CG13124: DRSC02220 -0.2
CG1105: DRSC12528 -0.4
